{"source": "PubChem BioAssay AID1259254 (NCATS, 2017)", "screen": "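Gene knock-downs that lead to re-replication, shown by excess G2 DNA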 (primary screen)", "cells": "human HCT116 colorectal cancer cells", "knock-down reagent": "single siRNA against human genes", "timing": "3 days", "measurement": "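Nuclei stained with Hoechst and imaged; cell-cycle phase assigned by DNA content; G2 share scaled per plate, non-targeting siRNA 0%, GMNN siRNA 100%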", "direction": "G2 robust z-score: higher = more G2 cells, more excess DNA replication", "call rule": "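Active siRNAs have a G2 robust z of 5 or more median absolute deviations over the median, which in these data means about 38% or higher of GMNN control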", "note": "Shown is one part, drawn at random, of about 59,000 reagents tested. About 1,550 of them (2.6%) were called active. 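G2 share is only a proxy for re-replication; each gene was hit by three separate siRNAs, and active genes were retested.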 Unmarked entries are inactive. Not all columns of the deposit are shown. The record does not give: the amount of reagent."}
{"Target gene":"PRIM1","PubChem SID":"SID160714883","G2 robust z-score":-0.9}
{"Target gene":"PRIM1","PubChem SID":"SID160714884","G2 robust z-score":2.13}
{"Target gene":"PRIM1","PubChem SID":"SID160714885","G2 robust z-score":-0.564}
{"Target gene":"DDX11","PubChem SID":"SID160753559","G2 robust z-score":-0.485}
{"Target gene":"DDX11","PubChem SID":"SID160753569","G2 robust z-score":1.09}
{"Target gene":"DDX11","PubChem SID":"SID160753580","G2 robust z-score":0.00643}
{"Target gene":"NDUFA6","PubChem SID":"SID160777844","G2 robust z-score":-0.342}
{"Target gene":"NDUFA6","PubChem SID":"SID160777845","G2 robust z-score":-0.478}
{"Target gene":"NDUFA6","PubChem SID":"SID160777846","G2 robust z-score":-0.23}
{"Target gene":"MTBP","PubChem SID":"SID160732894","G2 robust z-score":3.32}
{"Target gene":"MTBP","PubChem SID":"SID160738340","G2 robust z-score":0.659}
{"Target gene":"MTBP","PubChem SID":"SID160738341","G2 robust z-score":1.19}
{"Target gene":"RFPL4A","PubChem SID":"SID160770370","G2 robust z-score":-0.463}
{"Target gene":"RFPL4A","PubChem SID":"SID160770371","G2 robust z-score":0.509}
{"Target gene":"RFPL4A","PubChem SID":"SID160770372","G2 robust z-score":1.74}
{"Target gene":"SLC46A1","PubChem SID":"SID160730536","G2 robust z-score":1.65}
{"Target gene":"SLC46A1","PubChem SID":"SID160754815","G2 robust z-score":0.412}
{"Target gene":"SLC46A1","PubChem SID":"SID160754816","G2 robust z-score":0.538}

Reformatted: entries from further up
Target gene,PubChem SID,G2 robust z-score
NDUFA6,SID160777846,-0.23
MTBP,SID160732894,3.32
